Patent US9889146B2, “Benzoxaborole compounds and uses thereof” (priority 2012, dated 2018)
At least one structure is not confirmed: it was looked up by name or label, or the drawing left a doubt.

System: E. coli ATCC 25922, K. pneumoniae ATCC 13883 and P. aeruginosa ATCC 27853
Experiment: MIC, three strains and their mutants summarised
Type: cell-based
Conditions: MIC in E. coli, P. aeruginosa and K. pneumoniae mutants versus wild-type
Procedure: Spontaneous Resistance Frequency was determined in vitro for GSK2251052 and the resistance mutants in E. coli ATCC 25922, K. pneumoniae ATCC 13883, and P. aeruginosa ATCC 27853 strains were characterized. GSK2251052 was prepared as described in U.S. Pat. No. 7,816,344 (the entire contents of which are hereby incorporated by reference herein). LB broth, Mueller Hinton II broth (adjusted), and Difco noble agar were obtained from Becton Dickinson (Cockeysville, Md., USA). M9 minimal broth containing 1×M9 salt, 0.5 μg/ML thiamine, 1 mM MgSO4, 0.1 mM CaCl2, 2% glucose, was obtained from Teknova (Hollister, Calif., USA). Antibacterial agents ciprofloxacin, ceftazidime, chloramphenicol, gentamycin, kanamycin, polymixin B, tobramycin and trimethoprim, and amino acids were obtained from Sigma Chemicals (St. Louis, Mo., USA). Strains were obtained from ATCC (Manassas, Va., USA).
Susceptibility tests were performed following the recommendations for aerobic bacteria (M7-A7) from the Clinical and Laboratories Standards Institute (CLSI).
Laboratory generated mutants resistant to GSK2251052 contain mutations in the editing domain of LeuRS. Six to ten GSK2251052 resistant colonies of E. coli ATCC 25922, K. pneumoniae ATCC 13883 and P. aeruginosa ATCC 27853 were selected for further analysis and their MICs to GSK2251052 were determined (Table 4-7). […]

`NC[C@H]1O[C@H](O[C@H]2[C@H](O)[C@@H](O[C@H]3O[C@H](CO)[C@@H](O)[C@H](N)[C@H]3O)[C@H](N)C[C@@H]2N)[C@H](O)[C@@H](O)[C@@H]1O` [Kanamycin] was tested, and the “cross-resistance of GSK2251052 resistant mutants” value was “did not have any significant difference in MIC values than wild-type”.
